In US20230399390A1:
These are yes or no findings as the source states them, for the method shown. Some entries that bind do so weakly or less than the wild type.

Target: T1, rat Nogo-A d20plus region, recombinantly produced in E. coli (rat) (UniProt Q9JK11)
T1 sequence (looked up): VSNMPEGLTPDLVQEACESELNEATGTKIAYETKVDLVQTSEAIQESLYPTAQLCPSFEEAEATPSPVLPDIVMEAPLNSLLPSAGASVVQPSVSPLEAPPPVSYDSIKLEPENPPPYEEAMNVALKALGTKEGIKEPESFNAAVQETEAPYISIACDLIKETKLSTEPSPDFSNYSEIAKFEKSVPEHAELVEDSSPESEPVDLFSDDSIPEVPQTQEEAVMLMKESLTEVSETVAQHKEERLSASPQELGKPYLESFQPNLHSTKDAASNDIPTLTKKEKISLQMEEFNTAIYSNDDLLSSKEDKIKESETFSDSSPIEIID
Test: ELISA

B1: anti-Nogo-A specific human antibody NG034 (antibody, V domains shown)
VH: EVQLVETGGGLVPPGGSLRLSCAASGFTFTNYSMHWVRLAPGKRLEYISAISSDGGDPFYASSVKGRVAISRDNSKKTLYLQMGRLRPEDTAVYYCVSDAFDVWGQGTMVTVSS
VL: EIVLTQSPLSLSVTLGQPASISCRSSQSLLYSNGNTYLNWFQQRPGQSPRRLLYRVSNRDSGVPDRFSGSGSGTHFTLKISRVEAEDVGVYYCMQGTHWPRTFGQGTKVEIK
In the case of B1, the binding is reported as “binds”.
